Assay results from PubChem BioAssay AID2685 (National Center for Advancing Translational Sciences (NCATS), 2010).
The other results are listed elsewhere or left out. Shown are side measurements of this screen, not its main read-out; they come without a call. The list favours compounds with an active or inconclusive main result. The note in brackets gives the kind of curve behind each potency; many fits are weak.

Test: qHTS Assay for Lipid Storage Modulators in Drosophila S3 Cells;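 for cell number change: cells counted by Cell Tracker Red CMTPX staining in the red channel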
Settings: BODIPY lipid droplet fluorescence, 18-24 h; for cell number change: measured here: cell count max response, cells fed with added oleic acid
Method in brief: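 Drosophila S3 cells loaded with oleic acid (400 uM, as added) and compounds at several concentrations; lipid droplets imaged by 488-nm laser-scanning cytometry, 500–530 nm intensity and object ratio to cell channel. Percent activity normalized to 20 uM Triacsin C.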

[1] = measured here: cell number channel AC50, cells fed with added oleic acid
[2] = measured here: lipid fluorescence (Fed channel) AC50, cells fed with added oleic acid

SMILES | cell number change | AC50 [1] | AC50 [2]
O=C(OCc1ccccc1C(F)(F)F)c1cc([N+](=O)[O-])ccc1N1CCOCC1 | 34.3% | 15.8 µM [rising, single point] | –
O=C(CCc1nnc(CCCCc2ccccc2)o1)N1CCCCC1CCO (stereo not drawn) | 5.29% | – | –
O=C(NCc1ccccc1Cl)C(=O)NCC1OCCCN1S(=O)(=O)c1cccs1 (stereo not drawn) | 17.3% | – | 6.51 µM [rising, partial curve, poor fit]
O=C(CSc1ccccc1C(=O)O)NCc1ccccc1 | -15.1% | – | 0.651 µM [falling, full curve]
Cc1ccc(Nc2nc(Cl)nc(NC(C)(C)C)n2)cc1 | -16.6% | – | 29.1 µM [rising, single point]
COCCn1c(SCc2cc(C(C)=O)ccc2OC)nc2cc(Cl)ccc2c1=O | -4.65% | – | 20.6 µM [rising, partial curve, poor fit]
CCN(C(=O)COC(=O)c1cc([N+](=O)[O-])ccc1N1CCOCC1)c1ccccc1 | -16.6% | – | 4.11 µM [falling, full curve]
CS(=O)(=O)N(CC(=O)NCc1ccccc1Cl)Cc1ccccc1 | -31% | 16.4 µM [falling, single point] | 16.4 µM [falling, partial curve]
COc1cc(C(=O)NCc2nnc(SCC(=O)c3ccccc3)o2)cc(OC)c1OC | -10.5% | – | 29.1 µM [rising, single point]
CN(CC(=O)N1CCOCC1)S(=O)(=O)c1ccc2ccccc2c1 | 19.4% | – | 29.1 µM [falling, single point]
CC(=O)c1ccc(NC(=O)C(C)Sc2ccccn2)cc1 (stereo not drawn) | 44.1% | 23.1 µM [rising, single point] | –
CSc1nccc(Nc2ccccc2)c1C#N | 0.279% | – | 5.17 µM [falling, single point]
CCc1ccc(NC(=O)COC(=O)c2cccs2)cc1 | -6.94% | – | 0.116 µM [rising, full curve, poor fit]
CC(=O)c1ccc(NC(=O)CSc2nnc(NC(=O)CN3CCOCC3)s2)cc1 | 5.21% | – | 0.146 µM [falling, full curve, poor fit]
N=c1c(C(=O)NC2CCCC2)cc2c(=O)n3ccccc3nc2n1CC1CCCO1 (stereo not drawn) | 18.4% | – | 5.62 µM [falling, single point]
CC(=O)Nc1ccc(NC(=O)C2CCCN2C(=O)Nc2cccc(F)c2)cc1 (stereo not drawn) | -11.8% | – | –
COc1ccc(N2C(=O)CSC2c2ccncc2)cc1 (stereo not drawn) | 19.1% | – | 16.4 µM [rising, partial curve]
C/C=C\C=C/C(=O)Nc1cccc(C2=NOC3(C2)C[C@@H](C(N)=O)N(C(=O)CCCCC)C3)c1 (stereo partly drawn) | 30.1% | 25.9 µM [rising, partial curve] | 20.6 µM [rising, single point]
Cc1ccc(C(OCC(O)CN2CCCCC2)c2ccccc2)cc1 (stereo not drawn) | 5.86% | – | 6.51 µM [rising, single point]
COc1ccc(-c2cc3nc(-c4ccccc4)cc(N4CCC5(CC4)OCCO5)n3n2)cc1 | -16.4% | – | –
COc1ccc(-n2c(C)nnc2SCC(=O)N2CCOCC2)cc1 | -15% | – | –

SMILES | cell number change | AC50 [1] | AC50 [2]
CC(OC(=O)C1CCN(c2ccc(C(F)(F)F)cn2)CC1)C(=O)c1ccccc1 (stereo not drawn) | – | 0.0291 µM [falling, full curve, poor fit] | –
Cc1ccc2c(c1C)OC(=O)CC2c1ccccc1 (stereo not drawn) | -1.92% | – | 6.51 µM [rising, single point]
Cc1[nH]c2ccccc2c1/C=N\NC(=O)Cn1nnc(-c2ccccc2)n1 | -10.5% | – | 0.517 µM [rising, full curve]
Cc1cc(C)cc(NC(=O)C2CCC(CNC(=O)[C@@H]3Cc4ccccc4CN3)CC2)c1 (stereo partly drawn) | 4.89% | 0.0651 µM [rising, full curve, poor fit] | –
CCn1ccnc1CNCc1cn(-c2cc(C)ccc2C)nc1-c1ccccc1 | 1.4% | – | 0.411 µM [falling, single point]
Cc1ccc(C(=O)OCC(=O)NCC2CCCO2)c(C)c1 (stereo not drawn) | -5.73% | 6.51 µM [falling, single point] | –
CCOc1ccc(C2CC(c3cccc(C)c3)n3ncnc3N2)cc1 (stereo not drawn) | -11.4% | – | 2.06 µM [rising, partial curve, poor fit]
COc1ccc(-c2nc(CS(=O)CC(=O)NC3CCCCC3)c(C)o2)cc1OC (stereo not drawn) | 1.18% | – | –
COc1ccc(S(=O)(=O)N2CCN(C(=O)c3cccs3)CC2)cc1OC | -9.23% | – | –
O=C1CCC/C(=N/NC(=O)C2CCN(S(=O)(=O)c3cccs3)CC2)C1 | -8.38% | – | 0.92 µM [falling, full curve]
CCCNC(=O)Nc1ccccc1C(=O)Nc1ccc(OC)cc1 | – | 6.51 µM [rising, single point] | 3.66 µM [rising, partial curve]
CN(C(=O)COC(=O)c1cc(S(=O)(=O)N2CCOCC2)ccc1F)C1CCS(=O)(=O)C1 (stereo not drawn) | -19.7% | – | 0.651 µM [falling, full curve]
COC(=O)CNC(c1ccccc1)c1cc(Br)ccc1NC(=O)OCc1ccccc1 (stereo not drawn) | 37.1% | 29.1 µM [rising, single point] | –
O=S(=O)(c1ccccc1)N1CCN(C(=S)NCCCN2CCOCC2)CC1 | -19.5% | – | –
CNC(=O)c1ccsc1NC(=O)c1coc2ccccc2c1=O | -9.53% | – | 1.64 µM [falling, partial curve]
Cc1noc(C)c1C(=O)N1CCCC1 | -125% | 14.6 µM [falling, partial curve] | –
COc1cc(C(C)=O)ccc1OCC(=O)Nc1cc(Cl)ccc1-n1cncn1 | -0.213% | – | 4.11 µM [falling, partial curve]
COc1ccc2oc(C)c(C(=O)c3ccc([N+](=O)[O-])cc3)c2c1 | 2.35% | – | –
COc1ccc(CC(=O)Oc2ccc(Cl)cc2Br)cc1S(=O)(=O)N1CCOCC1 | 1% | – | –
O=c1[nH]c2ccc(S(=O)(=O)N3CCCCC3)cc2[nH]1 | -34.3% | 29.1 µM [falling, single point] | 0.0231 µM [rising, full curve, poor fit]
CSCCC(NC(=O)c1ccco1)C(=O)NCc1ccc2c(c1)OCO2 (stereo not drawn) | 55.5% | 8.2 µM [rising, partial curve] | –

Part of the list above, with tabs.
SMILES	cell number change	AC50 [1]	AC50 [2]
CCOc1ccc(C2CC(c3cccc(C)c3)n3ncnc3N2)cc1 (stereo not drawn)	-11.4%	–	2.06 µM [rising, partial curve, poor fit]
COc1ccc(-c2nc(CS(=O)CC(=O)NC3CCCCC3)c(C)o2)cc1OC (stereo not drawn)	1.18%	–	–

(further entries)

SMILES | cell number change | AC50 [1] | AC50 [2]
CCN1C(=O)C(=O)N(CC(=O)NC(C)CCc2ccccc2)C1=O (stereo not drawn) | -23.5% | – | –
NS(=O)(=O)c1cccc(NC(=O)CSc2nc3ccccc3c(=O)n2CC2CCCO2)c1 (stereo not drawn) | -24% | – | –
O=C(c1ccc(Cl)c(Cl)c1)N1CCC(=O)N(C(COCc2ccccc2)Cc2ccccc2)CC1 (stereo not drawn) | 12% | – | 10.3 µM [rising, single point]
Cc1ccc(SCc2ccc(C(=O)Nc3nccs3)o2)cc1 | 25.5% | – | 1.58 µM [rising, partial curve, poor fit]
O=C(CSc1nnc(-c2cccnc2)n1C1CCCCC1)NC1CCCCC1 | -3.85% | 0.13 µM [falling, full curve, poor fit] | 0.231 µM [rising, full curve, poor fit]
COCCCNC(=S)N1CCC(NC(=O)c2ccco2)CC1 | -14.2% | – | 8.2 µM [falling, partial curve]
CC1CCCCN1C(=O)CCS(=O)(=O)c1cccc2nonc12 (stereo not drawn) | -37.2% | 29.1 µM [falling, single point] | –
O=C(COC(=O)COc1ccc2ccccc2c1)Nc1cc(C(F)(F)F)ccc1N1CCOCC1 | -43.3% | 0.517 µM [falling, partial curve, poor fit] | 0.517 µM [falling, full curve, poor fit]
CCOC(=O)C1(Cc2ccc(Cl)cc2)CCN(C(C)Cc2ccc(O)c(OC)c2)CC1 (stereo not drawn) | -33.1% | 23.1 µM [falling, single point] | 4.61 µM [falling, partial curve]
CC(=O)c1cccc(Nc2cc(C)nc3ccccc23)c1 | – | – | 1.84 µM [rising, partial curve, poor fit]
Cc1n[nH]c(C)c1Sc1ccccc1N=Cc1cc(Cl)cc([N+](=O)[O-])c1O | 51% | 20.6 µM [rising, single point] | –
COc1ccc(NC(=O)CN(C)C(=O)/C=C/c2ccc(S(=O)(=O)N3CCCCCC3)cc2)cc1 | – | – | 23.1 µM [falling, single point]
Cn1c(=O)oc2cc(S(=O)(=O)N3CCOCC3)ccc21 | 0.259% | – | 0.116 µM [falling, full curve, poor fit]
COc1cccc(C2=NOC(C(=O)Nc3cccc(C(C)=O)c3)C2)c1 (stereo not drawn) | -15.9% | – | –
Cc1ccc(Nc2nnc(SCC(=O)Nc3cccc(S(=O)(=O)NC4=NCCCCC4)c3)s2)cc1 | 20.9% | – | 0.651 µM [rising, single point]
Cc1cc(C)nc(-n2nc(C)c3c(C(F)(F)F)cc(=O)[nH]c32)n1 | 1.61% | – | –
C/C(=N\Nc1nccnc1Cl)c1ccc(Br)cc1 | -0.265% | – | –
CCN(CC)S(=O)(=O)c1ccc(/C=C/C(=O)OCC(=O)NNC(=O)c2ccc(OC)cc2)cc1 | 6.45% | 6.51 µM [falling, single point] | 6.51 µM [falling, partial curve, poor fit]
COc1ccc2c(c1)C1NC(=S)N[C@@](C)(O2)C1C(=O)Nc1ccccc1 (stereo partly drawn) | – | – | 0.461 µM [rising, full curve]
O=C(Cn1cnc2sc(-c3ccccc3)cc2c1=O)NCc1ccccc1 | – | 2.31 µM [rising, partial curve] | 2.06 µM [rising, partial curve]

3 compounds out of the list, ordered by molecular weight, low to high:
SMILES | cell number change | AC50 [1] | AC50 [2]
CSc1nccc(Nc2ccccc2)c1C#N | 0.279% | – | 5.17 µM [falling, single point]
O=C(CSc1ccccc1C(=O)O)NCc1ccccc1 | -15.1% | – | 0.651 µM [falling, full curve]
COc1ccc(NC(=O)CN(C)C(=O)/C=C/c2ccc(S(=O)(=O)N3CCCCCC3)cc2)cc1 | – | – | 23.1 µM [falling, single point]
